Source: paper PMC10954545
No constants are given. Whether binding was seen depends on the method and setting. In cells and extracts the contact can be indirect. These calls come from enrichment with a bait or labelling near it, and not all partners need be listed. Where a sequence is shown, tags or fusion partners need not be part of it.

Biological target: T1, YFP–RAB-A5c (A. thaliana) (UniProt P28187)
T1 sequence: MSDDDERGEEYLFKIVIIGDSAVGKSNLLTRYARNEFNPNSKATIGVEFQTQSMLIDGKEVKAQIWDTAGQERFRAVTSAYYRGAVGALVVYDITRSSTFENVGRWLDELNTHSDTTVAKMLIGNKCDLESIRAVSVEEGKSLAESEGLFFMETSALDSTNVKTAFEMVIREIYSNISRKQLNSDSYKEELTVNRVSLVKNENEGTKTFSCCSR
Test: affinity purification with mass spectrometry; co-immunoprecipitation against YFP–RAB-A5c from total microsomes of Arabidopsis roots; in-gel trypsin digest, label-free quantification (SinQ), three biological replicates; compared with YFP–RAB-A2a, YFP–RAB-G3f and Col-0

“RECEPTOR-LIKE PROTEIN 4-LIKE1 (RLP4-L1) (A. thaliana (endogenous in roots))” was tested. Which binding did it give?
Its binding is “binds”.

B1: RECEPTOR-LIKE PROTEIN4 (RLP4) (receptor, UniProt F4HWL3 23-626)
chain: RPAPYALRISCGARKNVRTPPTYALWFKDIAYTGGVPANATTPTYITPPLKTLRYFPISEGPNNCYNIVRVPKGHYSVRIFFGLVDQPSFDKEPLFDISIEGTQISSLKSGWSSQDDQVFAEALIFLLGGTATICFHSTGHGDPAILSIEILQVDDKAYSFGEGWGQGVILRTATRLTCGTGKSRFDEDYRGDHWGGDRFWNRMRSFGKSADSPRSTEETIKKASVSPNFYPEGLYQSALVSTDDQPDLTYSLDVEPNRNYSVWLHFAEIDNTITAEGKRVFDVVINGDTFFEDVDIIKMSGGRYAALVLNATVTVSGRTLTVVLQPKAGGHAIINAIEVFEIITAEFKTLRDEVSALQKMKKALGLPSRFGWNGDPCVPPQHPWSGANCQLDKNTSRWFIDGLDLDNQGLKGFLPNDISKLKHLQSINLSENNIRGGIPASLGSVTSLEVLDLSYNSFNGSIPETLGELTSLRILNLNGNSLSGKVPAAVGGRLLHRASFNFTDNAGLCGIPGLPACGPHLSSGAKIGIAFGVSLAFLLIVACAMIWWKRRQNILRAQQIAARGAPYAKKRTHVSHDIQMSRHGHNNHGQARTAVENGPSLLS
How did the binding turn out when B1 was run?
The binding was “binds”.
